Experiment: Circular dichroism, helical content
Assay type: physicochemical
Conditions: 60 μM peptide, CD, calculated with BeStSel
[1] = 1 mM POPC:Cholesterol LUVs, pH 7.4, 25 °C
[2] = 1 mM POPC:LPS LUVs, pH 7.4, 25 °C
[3] = PBS (20 mM phosphate buffer), pH 7.4, 25 °C

Substance	Helical Content % [1]	Helical Content % [2]	Helical Content % [3]	Helical Content % (TFE (30% TFE buffer), 25 °C)
Ac-KKWRKWLKWLAKK-NH2 [W5K/A9W]	20.4%	32.8%	16.7%	42.0%
Ac-WRKWLKWLAKKKK-NH2 [Peptide W5K02]	30.4%	35.5%	38.9%	59.0%
Ac-RKWLKWLAKKKKW-NH2 [Peptide W5K03]	5.9%	10.0%	12.8%	50.2%
Ac-KKKKWRKWLKWLA-NH2 [Peptide W5K11]	8.8%	38.0%	15.3%	35.0%
Ac-KWRKWLKWLAKKK-NH2 [Peptide W5K01]	62.3%	35.8%	39.5%	54.8%
Ac-WLAKKKKWRKWLK-NH2 [Peptide W5K08]	12.3%	3.9%	2.6%	42.9%
Ac-KKKWRKWLKWLAK-NH2 [Peptide W5K12]	5.3%	6.8%	16.7%	47.7%
Ac-KWLAKKKKWRKWL-NH2 [Peptide W5K07]	8.2%	8.6%	6.2%	23.2%
Ac-AKKKKWRKWLKWL-NH2 [Peptide W5K10]	8.7%	11.1%	11.4%	20.3%
Ac-LKWLAKKKKWRKW-NH2 [Peptide W5K06]	8.7%	5.9%	12.2%	35.1%
Ac-KWLKWLAKKKKWR-NH2 [Peptide W5K04]	10.6%	7.5%	25.7%	53.8%
Ac-WLKWLAKKKKWRK-NH2 [Peptide W5K05]	4.5%	10.8%	12.2%	58.6%
Ac-LAKKKKWRKWLKW-NH2 [Peptide W5K09]	5.5%	8.4%	5.3%	15.6%
